Experimental data as given in PubChem BioAssay (NCATS).
The inconclusive results got no clear call from the source; some entries with a clear call stand among them for comparison. For some assays here: Potencies of inconclusive entries are doubtful fits and often do not repeat. Calls of active or inactive are those of the source. The call rests on the fitted dose curve; in most records, active means well fitted cell-killing curve with a large enough effect; inconclusive means small, poorly fitted or top-dose-only effect, or effect the other way; inactive means no such curve, though single readings can be large or run the other way.

Columns and labels:
[1] = Quantitative High-Throughput drug screen in 47 multiple myeloma cell lines against the NCATS MIPE library collection: JJN3_DSMZ cell viability assay (AID 1918966; further: nearly all actives have a fitted effect of over 50% in size)
Method in brief: (§1)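 CellTiter-Glo ATP luminescence gave viability after 48 h compound treatment at 37C of 500 multiple myeloma cells per well. Normalisation used DMSO-only wells as 100% and media-only wells as 0% viability; primary qHTS of approved and investigational drugs.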

[2] = Quantitative High-Throughput drug screen in 47 multiple myeloma cell lines against the NCATS MIPE library collection: KMS27_JCRB cell viability assay (AID 1918970); conditions: KMS27 myeloma cells, CellTiter-Glo ATP viability, 48 h; viability (% of DMSO): at 45.8 µM (top of the series) unless noted; further: nearly all actives have a fitted effect of over 30% in size
Method in brief: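 KMS27_JCRB myeloma cells, 500 per well, exposed 48 h at 37 C, 5% CO2 to MIPE 4.0 compounds. Viability from ATP by CellTiter-Glo luminescence, normalized to DMSO (100%) and medium-only (0%) wells.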

[3] = Quantitative High-Throughput drug screen in 47 multiple myeloma cell lines against the NCATS MIPE library collection: KMS20_JCRB cell viability assay (AID 1918973); conditions: CellTiter-Glo ATP, 48 h; viability (% of DMSO): at 45.8 µM (top of the series); further: nearly all actives have a fitted effect of over 45% in size
Method in brief: as §1

[4] = Quantitative High-Throughput drug screen in 47 multiple myeloma cell lines against the NCATS MIPE library collection: KMS21BM_JCRB cell viability assay (AID 1918974); conditions: ATP luminescence, 48 h; viability: at 45.8 µM (top of the series) unless noted
Method in brief: as §1

[5] = Quantitative High-Throughput drug screen in 47 multiple myeloma cell lines against the NCATS MIPE library collection: Karpas25_ECACC cell viability assay (AID 1918968; further: nearly all actives have a fitted effect of over 35% in size); conditions: Karpas25 myeloma viability, CellTiter-Glo ATP, 48 h; series mostly up to 45.8 µM
Method in brief: as §1

[6] = Quantitative High-Throughput drug screen in 47 multiple myeloma cell lines against the NCATS MIPE library collection: KMS12BM_JCRB cell viability assay (AID 1918971); further: nearly all actives have a fitted effect of over 35% in size
Method in brief: (§2)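 Myeloma cell lines, 500 cells per well, exposed to MIPE 4.0 library compounds for 48 h at 37C, 5% CO2. Viability from ATP by CellTiter-Glo luminescence; normalised to DMSO (100%) and media-only (0%) wells.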

[7] = Quantitative High-Throughput drug screen in 47 multiple myeloma cell lines against the NCATS MIPE library collection: KMS12PE_JCRB cell viability assay (AID 1918972); conditions: KMS12PE myeloma viability, CellTiter-Glo ATP, 48 h; viability: at 45.8 µM (top of the series); further: nearly all actives have a fitted effect of over 30% in size
Method in brief: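 qHTS of the MIPE 4.0 collection: 500 myeloma cells/well, 48 h drug exposure at 37C in 5% CO2, then CellTiter-Glo for 5 min at room temperature before luminescence reading.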

[8] = Quantitative High-Throughput drug screen in 47 multiple myeloma cell lines against the NCATS MIPE library collection: KMS26_JCRB cell viability assay (AID 1918975); conditions: KMS26 myeloma cells viability, CellTiter-Glo ATP, 48 h; viability (% of DMSO): at 45.8 µM (top of the series); further: nearly all actives have a fitted effect of over 45% in size
Method in brief: as §2

[9] = Quantitative High-Throughput drug screen in 47 multiple myeloma cell lines against the NCATS MIPE library collection: MMM1_PLB cell viability assay (AID 1918976); further: nearly all actives have a fitted effect of over 35% in size
Method in brief: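 Viability after 48 h drug exposure was measured as ATP-dependent luminescence. Cells, 500 per well, sat at 37 °C under 5% CO2; DMSO wells set 100%, media-only wells 0%.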
Potency means the concentration at half of the fitted maximal effect.

## NC(=O)c1noc([C@H](CCCC2CCCCC2)CC(=O)NO)n1
[1]
  Potency: inconclusive: 9350 nM [cytotoxic, partial curve, poor fit]
[2]
  Potency: active: 7430 nM
[3]
  Potency: active: 18700 nM
[4]
  Potency: inconclusive: 29600 nM [rising, partial curve, poor fit]

## CCOC(=O)C1=C[C@@H](OC(CC)CC)[C@H](NC(C)=O)[C@@H](N)C1
[1]
  Potency: inconclusive: 2.6 nM [rising, full curve, poor fit]
[5]
  Potency: inactive
[6]
  Potency: inconclusive: 2.3 nM [rising, full curve, poor fit]
[7]
  Potency: inactive
[4]
  Potency: inconclusive: 13.2 nM [rising, full curve, poor fit]
[8]
  Potency: inactive
[9]
  Potency: inconclusive: 1.2 nM [rising, full curve, poor fit]

## CN1CC[C@@H](c2c(O)cc(O)c3c(=O)cc(-c4ccccc4Cl)oc23)[C@@H](O)C1
[1]
  Potency: active: 74.3 nM
[5]
  Potency: active: 83.3 nM
[4]
  Potency: active: 29.6 nM
[8]
  Potency: active: 105 nM
[9]
  Potency: active: 187 nM

## COc1cc(F)c(C(C)C)cc1-c1ccc(C(F)(F)F)cc1CN1C(=O)O[C@H](c2cc(C(F)(F)F)cc(C(F)(F)F)c2)[C@@H]1C
[1]
  Potency: inconclusive: 26.4 nM [cytotoxic, full curve, poor fit]
[5]
  Potency: inactive
[6]
  Potency: active: 3320 nM
[3]
  Potency: inconclusive: 3.3 nM [cytotoxic, full curve, poor fit]
[4]
  Potency: inconclusive: 20900 nM [rising, partial curve]
[8]
  Potency: inactive
[9]
  Potency: active: 1180 nM

## NC[C@H]1O[C@H](O[C@H]2[C@@H](O)[C@@H](O[C@H]3O[C@H](CO)[C@@H](O)[C@H](N)[C@@H]3O)[C@H](N)C[C@@H]2N)[C@H](N)C[C@H]1O
[1]
  Potency: active: 1870 nM
[5]
  Potency: inactive
[6]
  Potency: inconclusive: 4.7 nM [cytotoxic, full curve, poor fit]
[7]
  Potency: inconclusive: 33.2 nM [cytotoxic, full curve, poor fit]
[3]
  Potency: inactive
[4]
  Potency: inconclusive: 74.3 nM [cytotoxic, full curve, poor fit]
